Screen size: about 320,000 compounds; about 22,000 (6.9%) were called active. This list was built around the results that the source calls inconclusive (neither active nor inactive); the mix of calls is not that of the screen. Calls follow the shape of the dose curve; as a rule, active = well fitted inhibition curve with a large enough effect; inconclusive = small, poorly fitted or top-dose-only effect, or another doubt; inactive = no such curve, though single readings can be large or run the other way. Potencies of inconclusive entries are doubtful fits and often do not repeat.
Test: Primary qHTS for delayed death inhibitors of the malarial parasite plastid, 96 hour incubation
Details: P. falciparum luciferase reporter growth; series mostly up to 28.7 µM
In short: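 P. falciparum expressing integrated firefly luciferase, in erythrocytes at 2% hematocrit, 0.05% parasitemia, incubated with compounds 96 h at 37 C, 5% CO2. Growth inhibition read as loss of luminescence; two-generation exposure targets delayed-death apicoplast inhibitors.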
Potency is read from the fitted curve at half-maximal effect.

With CCOc1ccc(NC(=S)Nc2ccc(C)c([N+](=O)[O-])c2)cc1 as the compound, how does the Potency read?
Its Potency is active: 2.08 µM.

For COc1ccccc1C(=O)Nc1cccc(C(=O)N2CCOCC2)c1, which Potency is on record?
The Potency was inconclusive: 18.5 µM [inhibitor, partial curve, poor fit].

With C=CCn1cc(C(=O)NCCCOCC)c(=O)c2cc(S(=O)(=O)N(CC)CC)ccc21 as the compound, how does the Potency read?
Its Potency is “inactive”.

For COc1ccc(S(=O)(=O)N2CCN(c3nn(C)c(=O)n(C)c3=O)CC2)cc1, which Potency is on record?
Its Potency is inconclusive: 16.5 µM [inhibitor, single point].

For COc1c(O)ccc(/C=N\NC(=O)c2ccc3c(c2)OCO3)c1[N+](=O)[O-], which Potency is on record?
The Potency was inconclusive: 18.5 µM [inhibitor, single point].

With CCOc1cc(CNCCc2c[nH]c3ccccc23)cc(Cl)c1OC as the compound, how does the Potency read?
Its Potency is active: 6.57 µM.

Which Potency does the source give for Cc1cccc(-c2nc3ccc(C(=O)NCCN4CCN(C)CC4)cc3nc2-c2cccc(C)c2)c1 here?
Its Potency is active: 11.7 µM.

With O=C(Nc1ccc(Cl)cc1C(=O)NCC1CCCO1)c1ccc(Cl)cc1Cl (configuration not stated) as the compound, how does the Potency read?
Its Potency is “inactive”.

With Cn1c(C(=O)N2CCN(c3ccccc3)CC2)cc2cc(Cl)ccc21 as the compound, how does the Potency read?
The Potency was inconclusive: 13.1 µM [inhibitor, single point].

For Cn1c(=O)c2c(nc(CN3CCN(Cc4ccccc4)CC3)n2Cc2ccc(F)cc2)n(C)c1=O, which Potency is on record?
Its Potency is inconclusive: 3.7 µM [inhibitor, partial curve, poor fit].

With O=C(NCCC1=CCCCC1)C1CCC(=O)N(Cc2ccc(Cl)cc2)C1 (configuration not stated) as the compound, how does the Potency read?
The Potency was inconclusive: 18.5 µM [inhibitor, single point].

With CCOc1ccccc1NC(=O)CSc1nc(=O)n(CCCN2CCOCC2)c2c1CCCC2 as the compound, how does the Potency read?
Its Potency is inconclusive: 18.5 µM [inhibitor, single point].

Which Potency does the source give for Cc1ccc(S(=O)(=O)N2CCCC2CNC(=O)C(=O)NC2CC2)cc1 (configuration not stated) here?
The Potency was inconclusive: 1.17 µM [inhibitor, single point].

With CCCc1c(C(=O)NNc2cc(C(F)(F)F)ccc2Cl)cnn1-c1ccccc1 as the compound, how does the Potency read?
The Potency was inconclusive: 5.22 µM [inhibitor, partial curve, poor fit].

For C/C(=N\NC(=O)CCc1ccc(S(=O)(=O)N2CCOCC2)cc1)c1ccc(Br)cc1, which Potency is on record?
Its Potency is inconclusive: 11.7 µM [inhibitor, single point].

For Cc1[nH]c2ccc(OC(F)(F)F)cc2c1CCN1C(=O)c2ccc(C(=O)O)cc2C1=O, which Potency is on record?
The Potency was “inactive”.

For COc1ccccc1Nc1nnc(SCc2cc(=O)n3cc(C)ccc3n2)s1, which Potency is on record?
Its Potency is inconclusive: 13.1 µM [inhibitor, partial curve].

Which Potency does the source give for Cc1nc(NCC(c2ccccc2)N(C)C)c2c(C)c(C)sc2n1 (configuration not stated) here?
Its Potency is inconclusive: 10.4 µM [inhibitor, partial curve, poor fit].

Which Potency does the source give for CCc1nn2cc(C(=O)c3cc(Cl)ccc3O)cnc2c1-c1ccc(F)cc1 here?
The Potency was inconclusive: 11.7 µM [inhibitor, single point].

With Cc1ccc(Cn2nc(C)c(/C=N/NC(=O)c3cccnc3)c2C)cc1 as the compound, how does the Potency read?
Its Potency is inconclusive: 1.31 µM [inhibitor, partial curve, poor fit].

For CCOc1ccc(N2C(=O)CC(Sc3nc(C)cc(C)n3)C2=O)cc1 (configuration not stated), which Potency is on record?
The Potency was “inactive”.

For COCCN(C(=O)CCC(=O)Nc1cc(C)on1)C(C(=O)NC1CCCC1)c1ccc(C(C)C)cc1 (configuration not stated), which Potency is on record?
The Potency was inconclusive: 1.17 µM [inhibitor, partial curve, poor fit].

Which Potency does the source give for Oc1ccc(-c2nc3ccccc3s2)cc1 here?
Its Potency is “inactive”.

For COc1ccc(N(C(=O)c2cc3ccccc3oc2=O)C2C=CS(=O)(=O)C2)cc1 (configuration not stated), which Potency is on record?
Its Potency is inconclusive: 1.31 µM [inhibitor, partial curve, poor fit].

With COc1ccc(CNC(=O)C2CCCN2CCc2ccccc2)cc1OC (configuration not stated) as the compound, how does the Potency read?
The Potency was inconclusive: 0.465 µM [inhibitor, full curve, poor fit].

With Cc1ccc(S(=O)(=O)Cn2nnnc2C(c2ccc(F)cc2)N2CCCCC2)cc1 (configuration not stated) as the compound, how does the Potency read?
The Potency was “inactive”.

For O=c1c2ccccc2nc(-c2ccco2)n1-c1nc2ccccc2s1, which Potency is on record?
Its Potency is active: 1.04 µM.

For Cc1cc(C)n(-c2nnc(N3CCN(c4ccccc4)CC3)nn2)n1, which Potency is on record?
Its Potency is active: 0.329 µM.

Which Potency does the source give for COc1cccc(CN(C(=O)c2ccco2)C2CCS(=O)(=O)C2)c1 (configuration not stated) here?
The Potency was inconclusive: 18.5 µM [inhibitor, single point].

Which Potency does the source give for Cc1cc(C(C)(C)C)nc2[nH]n(-c3ccccc3)c(=O)c12 here?
The Potency was inconclusive: 9.28 µM [inhibitor, partial curve, poor fit].

With Cc1cc(NCc2cccnc2)nc(N)n1 as the compound, how does the Potency read?
Its Potency is “inactive”.

For Cc1ccc(N(Cc2ccc(C(=O)NCC3CCCO3)cc2)S(C)(=O)=O)cc1C (configuration not stated), which Potency is on record?
Its Potency is inconclusive: 18.5 µM [inhibitor, single point].

For COc1ccc2c(c1)CCc1sc(NC(=O)c3ccco3)nc1-2, which Potency is on record?
Its Potency is inconclusive: 10.4 µM [inhibitor, partial curve, poor fit].

Which Potency does the source give for Cc1cc(-c2nn(-c3ccccc3F)cc2CN2CCCC(C(N)=O)C2)c(C)s1 (configuration not stated) here?
Its Potency is inconclusive: 0.0026 µM [inhibitor, partial curve, poor fit].

For Clc1ccc2c(NCc3ccco3)ncnc2c1, which Potency is on record?
Its Potency is inconclusive: 18.5 µM [inhibitor, single point].

For O=C(NC1CCCCC1)C1CCN(c2nnnn2-c2ccccc2)CC1, which Potency is on record?
The Potency was inconclusive: 14.7 µM [inhibitor, partial curve].

Which Potency does the source give for COc1ccc(OC)c(/C=C/C(=O)N2CCN(S(=O)(=O)c3cc(C)ccc3C)CC2)c1 here?
Its Potency is inconclusive: 11.7 µM [inhibitor, partial curve, poor fit].

Which Potency does the source give for CC(=O)c1nnn(-c2nc(N)nc(N(c3ccccc3)c3ccccc3)n2)c1C here?
Its Potency is inconclusive: 4.15 µM [inhibitor, full curve, poor fit].

For Fc1cc(Cl)c(OCc2noc(-c3ccsc3)n2)c(Cl)c1, which Potency is on record?
Its Potency is “inactive”.

With Cn1nc(C(F)(F)F)c(-c2ccccc2)c1NC(=O)c1ccco1 as the compound, how does the Potency read?
The Potency was inconclusive: 0.208 µM [inhibitor, full curve, poor fit].

For Cc1nc2c(F)c(F)c(C(F)(F)F)c(F)c2[nH]1, which Potency is on record?
Its Potency is inconclusive: 1.85 µM [inhibitor, partial curve, poor fit].

For CCCCn1c(O)c(N=NC(=O)c2ccco2)c2ccccc21, which Potency is on record?
The Potency was inconclusive: 11.7 µM [inhibitor, single point].
